PMC6686130
The exact form of at least one protein or probe is not confirmed. Negatives hold for the conditions tested.

test system: GST-bZIP73Jap (Oryza sativa (japonica allele)); assay: EMSA; details: Chemiluminescent EMSA kit (Thermo); pH and temperature not stated; recombinant protein; protein details: GST (pGEX4T-3)

| Sequence | binding result |
| --- | --- |
| TGTACACTGATCTTGTGCTATAGCCTATAGGACGTGCCATACAGTACGAAAAATATCATTTTATATTTTC (double strand) [OsMST8 promoter G-box probe] | binds |
| TTGAAAAAATAATGGGTAGAAAAAACTATCAATTATAAAAGACGAAACATTGAGATATATGTATTAGAGA (double strand) [OsMST7(MG) probe] | no binding |
| GGACGGGCGTCGCTCGCGCGGCGGTTCAAGGCGCGGCTAGCAGAGCGCCCGCACGCGGGTGGGCGCGAGC (double strand) [OsINV4(MG) probe] | no binding |
| GGACGGGCGTCGCTCGCGCGGCGGTTCACGTGGCGGCTAGCAGAGCGCCCGCACGCGGGTGGGCGCGAGC (double strand) [OsINV4 promoter G-box probe] | binds |
| TTGAAAAAATAATGGGTAGAAAAAACTATCAATTATACGTGACGAAACATTGAGATATATGTATTAGAGA (double strand) [OsMST7 promoter G-box probe] | binds |
| TGTACACTGATCTTGTGCTATAGCCTATAGGAAAAGCCATACAGTACGAAAAATATCATTTTATATTTTC (double strand) [OsMST8(MG) probe] | no binding |
